Laboratory results published in the supplement of paper PMC8728848.
Some of the results follow.

Experiments:
Test in all cases: glycan array binding signal (z-score within array); higher = stronger binding
Conditions in all cases: glycan notation: IUPAC condensed, linker removed
[1] = target: Neu5Ac(a2-6)GlcNAc(b1-4)GlcNAc(b1-4)GlcNAc
How it was run: (§1)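 The binding signal is a Z-score computed within each array. Data were drawn from 3228 arrays in the Consortium for Functional Glycomics database, restricted to those with a known protein sequence. Scores were averaged over arrays of the same protein sequence at different concentrations or buffers, and over linkers, and negative values can be taken as non-binding.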

[2] = target: Neu5Ac(a2-8)Neu5Ac
How it was run: as §1

[3] = target: Neu5Ac(a2-8)Neu5Ac(a2-3)Gal(b1-3)GalNAc(b1-4)[Neu5Ac(a2-3)]Gal(b1-4)Glc
How it was run: as §1

[4] = target: Neu5Ac(a2-8)Neu5Ac(a2-3)Gal(b1-3)GalNAc(b1-4)[Neu5Ac(a2-8)Neu5Ac(a2-3)]Gal(b1-4)Glc
How it was run: as §1

[5] = target: Neu5Ac(a2-8)Neu5Ac(a2-3)Gal(b1-4)Glc
How it was run: as §1

[6] = target: Neu5Ac(a2-8)Neu5Ac(a2-3)Gal(b1-4)GlcNAc
How it was run: as §1

[7] = target: Neu5Ac(a2-8)Neu5Ac(a2-3)[Gal(b1-3)GalNAc(b1-4)]Gal(b1-4)Glc
How it was run: as §1

[8] = target: Neu5Ac(a2-8)Neu5Ac(a2-3)[GalNAc(b1-4)]Gal(b1-4)Glc
How it was run: as §1

[9] = target: Neu5Ac(a2-8)Neu5Ac(a2-8)Neu5Ac
How it was run: as §1

[10] = target: Neu5Ac(a2-8)Neu5Ac(a2-8)Neu5Ac(a2-3)Gal(b1-4)Glc
How it was run: as §1

[11] = target: Neu5Ac(a2-8)Neu5Ac(a2-8)Neu5Ac(a2-3)[Gal(b1-3)GalNAc(b1-4)]Gal(b1-4)Glc
How it was run: as §1

[12] = target: Neu5Ac(a2-8)Neu5Ac(a2-8)Neu5Ac(a2-3)[GalNAc(b1-4)]Gal(b1-4)Glc
How it was run: as §1

[13] = target: Neu5Ac(a2-8)Neu5Ac(a2-8)Neu5Ac(a2-8)Neu5Ac(a2-3)[GalNAc(b1-4)]Gal(b1-4)Glc
How it was run: as §1

[14] = target: Neu5Ac(a2-8)Neu5Gc(a2-3)Gal(b1-4)GlcNAc
How it was run: as §1

[15] = target: Neu5Ac(b2-6)Gal(b1-4)GlcNAc
How it was run: as §1

[16] = target: Neu5Ac(b2-6)GalNAc
How it was run: as §1

[17] = target: Neu5Ac9Ac(a2-3)Gal(b1-3)GlcNAc
How it was run: as §1

[18] = target: Neu5Ac9Ac(a2-3)Gal(b1-4)GlcNAc
How it was run: as §1

[19] = target: Neu5Ac9Ac(a2-6)Gal(b1-4)GlcNAc
How it was run: as §1

[20] = target: Neu5Gc(a2-3)Gal(b1-3)GlcNAc
How it was run: as §1

[21] = target: Neu5Gc(a2-3)Gal(b1-3)[Fuc(a1-4)]GlcNAc
How it was run: as §1

[22] = target: Neu5Gc(a2-3)Gal(b1-4)Glc
How it was run: as §1

[23] = target: Neu5Gc(a2-3)Gal(b1-4)GlcNAc
How it was run: as §1

[24] = target: Neu5Gc(a2-3)Gal(b1-4)GlcNAc(b1-3)Gal(b1-4)GlcNAc(b1-2)Man(a1-3)[Neu5Gc(a2-3)Gal(b1-4)GlcNAc(b1-3)Gal(b1-4)GlcNAc(b1-2)Man(a1-6)]Man(b1-4)GlcNAc(b1-4)GlcNAc
How it was run: as §1

[25] = target: Neu5Gc(a2-3)Gal(b1-4)[Fuc(a1-3)]GlcNAc
How it was run: as §1

[26] = target: Neu5Gc(a2-6)Gal(b1-4)GlcNAc
How it was run: as §1

[27] = target: Neu5Gc(a2-6)GalNAc
How it was run: as §1

[28] = target: Neu5Gc(a2-8)Neu5Ac(a2-3)Gal(b1-4)GlcNAc
How it was run: as §1

[29] = target: Neu5Gc(a2-8)Neu5Gc(a2-3)Gal(b1-4)GlcNAc
How it was run: as §1

[30] = target: Neu5Gc(a2-8)Neu5Gc(a2-3)Gal(b1-4)GlcNAc(b1-3)Gal(b1-4)GlcNAc
How it was run: as §1

[31] = target: Neu5Gc(a2-8)Neu5Gc(a2-6)Gal(b1-4)GlcNAc
How it was run: as §1

[32] = target: Neu5Gc(b2-6)Gal(b1-4)GlcNAc
How it was run: as §1

B1: Sp8391B-bot-388-20-388 (Bacteroides ovatus) (protein)
chain: GCQNNDENEQHYDNKLFISASNFTKEILFKAGDTNVETGLSVAIAKPEEHDIKVTMSPAPELLSTYKLAYYDETAVLLSEEHYSMPETSTTIKSGSIVSPELPIEFINTGELDIKTTYVLPVTIKSVEGIGVLQSAKTYYYVFRGASLINVVCNISRNRAYPDFKNDSKFNNLTENTMEILFKANSFPNTLNTLMGIESNYLLRIGDATIPNNQLQVATSVNNCTSADLQLESGKWYHVAVAFNKGNVKVYINGVEKLSGSTGKSSVSLGAKHTNEEDGSRCFWVGYSYKDDRYFDGVVSEVRIWNRALTAEEIQATNHFYTIEPESEGLIAYWKFDEGSGTVAKDYSVSGYDLTIEKEPKWESVSLPQ
- glycan array binding signal (z-score) [1]: 0.064
- glycan array binding signal (z-score) [2]: 0.603
- glycan array binding signal (z-score) [3]: -0.67
- glycan array binding signal (z-score) [4]: -0.512
- glycan array binding signal (z-score) [5]: -0.27
- glycan array binding signal (z-score) [6]: -0.447
- glycan array binding signal (z-score) [7]: -0.389
- glycan array binding signal (z-score) [8]: 0.19
- glycan array binding signal (z-score) [9]: -0.412
- glycan array binding signal (z-score) [10]: 0.117
- glycan array binding signal (z-score) [11]: 1.09
- glycan array binding signal (z-score) [12]: -0.456
- glycan array binding signal (z-score) [13]: 0.263
- glycan array binding signal (z-score) [14]: 1.29
- glycan array binding signal (z-score) [15]: 0.013
- glycan array binding signal (z-score) [16]: 0.549
- glycan array binding signal (z-score) [17]: -0.653
- glycan array binding signal (z-score) [18]: 0.166
- glycan array binding signal (z-score) [19]: -0.27
- glycan array binding signal (z-score) [20]: -0.666
- glycan array binding signal (z-score) [21]: -0.742
- glycan array binding signal (z-score) [22]: 0.407
- glycan array binding signal (z-score) [23]: -0.081
- glycan array binding signal (z-score) [24]: -0.078
- glycan array binding signal (z-score) [25]: -0.7
- glycan array binding signal (z-score) [26]: -0.424
- glycan array binding signal (z-score) [27]: 0.187
- glycan array binding signal (z-score) [28]: -0.076
- glycan array binding signal (z-score) [29]: -0.726
- glycan array binding signal (z-score) [30]: -1.02
- glycan array binding signal (z-score) [31]: -0.292
- glycan array binding signal (z-score) [32]: -0.136
